{"source": "PubChem BioAssay AID1259308 (NCATS, 2017)", "screen": "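Genes whose loss raises luciferase production in HEK293 cells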 (primary screen)", "cells": "human HEK293 embryonic kidney cells stably expressing firefly luciferase (HEK-CMV-Luc2-Hygro)", "reagents": "single siRNA against human genes, 0.8 pmol siRNA per well", "time to read-out": "72 h", "detection": "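Luciferase light (ONE-Glo) measured on one replicate plate set and viability (CellTiter-Glo) on the other, scaled to a negative control siRNA, with robust z-scores and luciferase per cell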", "direction": "total luciferase, z-score: higher = more reporter protein produced", "hit rule": "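An siRNA counts as active if its total luciferase robust z-score exceeds 3; genes with two or more such siRNAs out of three were retested with fresh siRNAs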", "calls": "active = raised luciferase; inactive = no rise", "note": "Here is one part, drawn at random, of about 59,000 deposited reagents. About 1,510 of them (2.6%) count as active. 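Calls use total luciferase alone and ignore viability, so some active siRNAs may act by altering cell number.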 The numbers tell different reagents against one gene apart. Not all columns of the deposit are shown."}
{"Gene":"CGNL1 (GeneID 84952)","reagent":1,"total luciferase, z-score":-0.873,"call":"inactive"}
{"Gene":"CGNL1 (GeneID 84952)","reagent":2,"total luciferase, z-score":-0.536,"call":"inactive"}
{"Gene":"CGNL1 (GeneID 84952)","reagent":3,"total luciferase, z-score":-0.961,"call":"inactive"}
{"Gene":"U2AF1L4 (GeneID 199746)","reagent":1,"total luciferase, z-score":2.15,"call":"inactive"}
{"Gene":"U2AF1L4 (GeneID 199746)","reagent":2,"total luciferase, z-score":0.204,"call":"inactive"}
{"Gene":"U2AF1L4 (GeneID 199746)","reagent":3,"total luciferase, z-score":-0.186,"call":"inactive"}
{"Gene":"PPM1L (GeneID 151742)","reagent":1,"total luciferase, z-score":0.0143,"call":"inactive"}
{"Gene":"PPM1L (GeneID 151742)","reagent":2,"total luciferase, z-score":-1.67,"call":"inactive"}
{"Gene":"PPM1L (GeneID 151742)","reagent":3,"total luciferase, z-score":-0.72,"call":"inactive"}
{"Gene":"NAMPT (GeneID 10135)","reagent":1,"total luciferase, z-score":-0.536,"call":"inactive"}
{"Gene":"NAMPT (GeneID 10135)","reagent":2,"total luciferase, z-score":-1.43,"call":"inactive"}
{"Gene":"NAMPT (GeneID 10135)","reagent":3,"total luciferase, z-score":0.398,"call":"inactive"}
{"Gene":"CLCA4 (GeneID 22802)","reagent":1,"total luciferase, z-score":1.08,"call":"inactive"}
{"Gene":"CLCA4 (GeneID 22802)","reagent":2,"total luciferase, z-score":-1.13,"call":"inactive"}
{"Gene":"CLCA4 (GeneID 22802)","reagent":3,"total luciferase, z-score":-0.0493,"call":"inactive"}
{"Gene":"ETNK1 (GeneID 55500)","reagent":1,"total luciferase, z-score":0.483,"call":"inactive"}
{"Gene":"ETNK1 (GeneID 55500)","reagent":2,"total luciferase, z-score":0.618,"call":"inactive"}
{"Gene":"ETNK1 (GeneID 55500)","reagent":3,"total luciferase, z-score":0.532,"call":"inactive"}

The list goes on; the last 4 above are carried over.
{"Gene":"CLCA4 (GeneID 22802)","reagent":3,"total luciferase, z-score":-0.0493,"call":"inactive"}
{"Gene":"ETNK1 (GeneID 55500)","reagent":1,"total luciferase, z-score":0.483,"call":"inactive"}
{"Gene":"ETNK1 (GeneID 55500)","reagent":2,"total luciferase, z-score":0.618,"call":"inactive"}
{"Gene":"ETNK1 (GeneID 55500)","reagent":3,"total luciferase, z-score":0.532,"call":"inactive"}
{"Gene":"GTSE1 (GeneID 51512)","reagent":1,"total luciferase, z-score":0.364,"call":"inactive"}
{"Gene":"GTSE1 (GeneID 51512)","reagent":2,"total luciferase, z-score":-0.443,"call":"inactive"}
{"Gene":"GTSE1 (GeneID 51512)","reagent":3,"total luciferase, z-score":-0.517,"call":"inactive"}
{"Gene":"VWA1 (GeneID 64856)","reagent":1,"total luciferase, z-score":-0.372,"call":"inactive"}
{"Gene":"VWA1 (GeneID 64856)","reagent":2,"total luciferase, z-score":-0.484,"call":"inactive"}
{"Gene":"VWA1 (GeneID 64856)","reagent":3,"total luciferase, z-score":0.546,"call":"inactive"}
{"Gene":"PSTK (GeneID 118672)","reagent":1,"total luciferase, z-score":-1.38,"call":"inactive"}
{"Gene":"PSTK (GeneID 118672)","reagent":2,"total luciferase, z-score":1.37,"call":"inactive"}
{"Gene":"PSTK (GeneID 118672)","reagent":3,"total luciferase, z-score":-0.793,"call":"inactive"}
{"Gene":"CNKSR1 (GeneID 10256)","reagent":1,"total luciferase, z-score":-1.47,"call":"inactive"}
{"Gene":"CNKSR1 (GeneID 10256)","reagent":2,"total luciferase, z-score":-1.05,"call":"inactive"}
{"Gene":"CNKSR1 (GeneID 10256)","reagent":3,"total luciferase, z-score":0.903,"call":"inactive"}
{"Gene":"CTNNA3 (GeneID 29119)","reagent":1,"total luciferase, z-score":1.01,"call":"inactive"}
{"Gene":"CTNNA3 (GeneID 29119)","reagent":2,"total luciferase, z-score":-0.474,"call":"inactive"}
{"Gene":"CTNNA3 (GeneID 29119)","reagent":3,"total luciferase, z-score":-1.25,"call":"inactive"}
{"Gene":"COL18A1 (GeneID 80781)","reagent":1,"total luciferase, z-score":-0.0478,"call":"inactive"}
{"Gene":"COL18A1 (GeneID 80781)","reagent":2,"total luciferase, z-score":-1.13,"call":"inactive"}
{"Gene":"COL18A1 (GeneID 80781)","reagent":3,"total luciferase, z-score":-0.274,"call":"inactive"}
{"Gene":"FAM66C (GeneID 440078)","reagent":1,"total luciferase, z-score":-0.984,"call":"inactive"}
{"Gene":"FAM66C (GeneID 440078)","reagent":2,"total luciferase, z-score":0.84,"call":"inactive"}
{"Gene":"FAM66C (GeneID 440078)","reagent":3,"total luciferase, z-score":1,"call":"inactive"}
{"Gene":"TNRC18 (GeneID 84629)","reagent":1,"total luciferase, z-score":0.317,"call":"inactive"}
{"Gene":"TNRC18 (GeneID 84629)","reagent":2,"total luciferase, z-score":-0.609,"call":"inactive"}
{"Gene":"TNRC18 (GeneID 84629)","reagent":3,"total luciferase, z-score":1.44,"call":"inactive"}
